Reference: patent publication US20090180995A1, “NOVEL ANTICOAGULANT POLYPEPTIDES AND COMPLEX” (National University of Singapore, priority 2005, published 2009)

Test system: hemextin A-hemextin B interaction
Assay: ITC, hemextin A-hemextin B interaction
Assay type: binding, Hemachatus haemachatus

B1: hemextin AB complex: synergistic 1:1 tetrameric complex of hemextin A and hemextin B, reconstituted from equimolar proteins (protein)
chain 1: LKCKNKLVPFLSKTCPEGKNLCYKMTMLKMPKIPIKRGCTDACPKSSLLVKVVCCNKDKCN
chain 2: LKCKNKVVPFLKCKNKVVPFLCYKMTLKKVPKIPIKRGCTDACPKSSLLVNVMCCKTDKCN
ΔH, hemextin AB complex formation (ITC): -11.68 kcal/M
heat capacity change ΔCp (slope of ΔH versus temperature, 10-45° C.): −177 cal mol^−1 deg^−1
